{"sequences": {"note": "The chains behind the UniProt entries cited, without tags or fusion partners. Where a name states a change or a piece, a line headed by the entry shows the natural chain unless it says otherwise.", "UniProt P12995": "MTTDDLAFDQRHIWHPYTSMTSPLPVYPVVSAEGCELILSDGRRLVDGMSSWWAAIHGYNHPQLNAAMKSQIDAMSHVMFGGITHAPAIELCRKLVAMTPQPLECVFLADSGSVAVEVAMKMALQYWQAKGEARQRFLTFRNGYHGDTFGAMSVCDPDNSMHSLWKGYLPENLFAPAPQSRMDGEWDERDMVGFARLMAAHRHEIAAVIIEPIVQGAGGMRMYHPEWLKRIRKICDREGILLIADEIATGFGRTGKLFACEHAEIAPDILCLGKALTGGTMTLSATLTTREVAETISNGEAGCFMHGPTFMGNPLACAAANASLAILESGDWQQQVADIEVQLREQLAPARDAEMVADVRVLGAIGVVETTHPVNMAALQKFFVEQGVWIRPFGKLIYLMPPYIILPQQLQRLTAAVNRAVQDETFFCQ", "UniProt P14407": "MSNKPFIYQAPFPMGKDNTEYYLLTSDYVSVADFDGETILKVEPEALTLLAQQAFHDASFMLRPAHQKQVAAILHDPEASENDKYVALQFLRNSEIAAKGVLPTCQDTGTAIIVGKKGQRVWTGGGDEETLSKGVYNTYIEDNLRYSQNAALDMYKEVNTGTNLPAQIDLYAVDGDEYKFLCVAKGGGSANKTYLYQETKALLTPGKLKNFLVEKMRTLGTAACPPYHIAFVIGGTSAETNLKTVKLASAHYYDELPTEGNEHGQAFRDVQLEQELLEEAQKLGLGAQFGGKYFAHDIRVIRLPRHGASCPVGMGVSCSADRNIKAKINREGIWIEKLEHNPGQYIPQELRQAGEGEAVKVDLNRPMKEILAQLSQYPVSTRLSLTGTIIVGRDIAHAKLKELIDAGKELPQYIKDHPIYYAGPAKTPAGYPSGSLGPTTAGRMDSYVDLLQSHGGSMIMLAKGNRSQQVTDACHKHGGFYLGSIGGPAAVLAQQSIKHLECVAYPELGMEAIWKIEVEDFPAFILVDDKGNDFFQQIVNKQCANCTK", "UniProt P0AFF4": "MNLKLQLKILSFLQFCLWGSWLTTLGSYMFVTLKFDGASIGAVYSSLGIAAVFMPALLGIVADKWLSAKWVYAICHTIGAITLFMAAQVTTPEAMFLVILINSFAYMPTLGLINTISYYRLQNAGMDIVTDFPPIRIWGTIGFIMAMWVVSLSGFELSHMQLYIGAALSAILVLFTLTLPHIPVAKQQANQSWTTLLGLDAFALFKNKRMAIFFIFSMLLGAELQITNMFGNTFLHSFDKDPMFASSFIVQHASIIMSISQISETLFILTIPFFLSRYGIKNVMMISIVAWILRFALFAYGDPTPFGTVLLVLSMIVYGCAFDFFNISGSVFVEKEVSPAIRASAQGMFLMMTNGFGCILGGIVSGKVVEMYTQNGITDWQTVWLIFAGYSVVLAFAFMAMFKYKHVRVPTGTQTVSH", "UniProt P0DSF4": "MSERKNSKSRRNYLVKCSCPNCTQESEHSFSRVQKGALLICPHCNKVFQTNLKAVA", "UniProt P15286": "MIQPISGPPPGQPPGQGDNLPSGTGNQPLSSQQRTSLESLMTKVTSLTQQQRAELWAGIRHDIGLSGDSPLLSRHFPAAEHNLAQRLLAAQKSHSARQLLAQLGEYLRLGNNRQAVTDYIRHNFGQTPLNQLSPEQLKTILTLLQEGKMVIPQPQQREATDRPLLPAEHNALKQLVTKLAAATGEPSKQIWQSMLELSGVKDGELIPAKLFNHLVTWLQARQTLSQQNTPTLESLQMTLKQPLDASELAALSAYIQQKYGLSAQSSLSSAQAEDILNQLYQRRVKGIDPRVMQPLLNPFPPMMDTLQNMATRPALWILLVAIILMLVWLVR", "UniProt P12999": "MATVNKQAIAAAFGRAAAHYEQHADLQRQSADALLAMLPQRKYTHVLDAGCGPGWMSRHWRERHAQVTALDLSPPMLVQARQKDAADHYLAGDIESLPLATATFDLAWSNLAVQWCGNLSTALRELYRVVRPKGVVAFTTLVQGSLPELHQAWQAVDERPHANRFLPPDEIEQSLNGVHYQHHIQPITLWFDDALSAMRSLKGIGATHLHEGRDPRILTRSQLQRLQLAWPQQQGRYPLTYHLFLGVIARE", "UniProt P0AGL5": "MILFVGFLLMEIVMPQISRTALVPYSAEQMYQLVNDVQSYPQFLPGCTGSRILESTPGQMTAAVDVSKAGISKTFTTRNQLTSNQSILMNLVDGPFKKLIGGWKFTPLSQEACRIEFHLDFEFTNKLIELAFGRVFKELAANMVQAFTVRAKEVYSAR", "UniProt P13039": "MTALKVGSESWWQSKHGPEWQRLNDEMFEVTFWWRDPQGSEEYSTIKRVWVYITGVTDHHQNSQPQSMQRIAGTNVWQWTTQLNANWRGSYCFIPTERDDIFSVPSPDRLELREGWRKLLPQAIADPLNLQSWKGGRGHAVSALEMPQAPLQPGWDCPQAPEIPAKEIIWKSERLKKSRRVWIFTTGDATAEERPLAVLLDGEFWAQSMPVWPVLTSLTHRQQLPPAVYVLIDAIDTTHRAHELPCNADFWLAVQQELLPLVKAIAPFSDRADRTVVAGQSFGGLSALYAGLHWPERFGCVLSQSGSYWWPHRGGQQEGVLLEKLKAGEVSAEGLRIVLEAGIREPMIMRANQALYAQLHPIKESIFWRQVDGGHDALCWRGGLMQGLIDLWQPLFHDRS", "UniProt P0CK95": "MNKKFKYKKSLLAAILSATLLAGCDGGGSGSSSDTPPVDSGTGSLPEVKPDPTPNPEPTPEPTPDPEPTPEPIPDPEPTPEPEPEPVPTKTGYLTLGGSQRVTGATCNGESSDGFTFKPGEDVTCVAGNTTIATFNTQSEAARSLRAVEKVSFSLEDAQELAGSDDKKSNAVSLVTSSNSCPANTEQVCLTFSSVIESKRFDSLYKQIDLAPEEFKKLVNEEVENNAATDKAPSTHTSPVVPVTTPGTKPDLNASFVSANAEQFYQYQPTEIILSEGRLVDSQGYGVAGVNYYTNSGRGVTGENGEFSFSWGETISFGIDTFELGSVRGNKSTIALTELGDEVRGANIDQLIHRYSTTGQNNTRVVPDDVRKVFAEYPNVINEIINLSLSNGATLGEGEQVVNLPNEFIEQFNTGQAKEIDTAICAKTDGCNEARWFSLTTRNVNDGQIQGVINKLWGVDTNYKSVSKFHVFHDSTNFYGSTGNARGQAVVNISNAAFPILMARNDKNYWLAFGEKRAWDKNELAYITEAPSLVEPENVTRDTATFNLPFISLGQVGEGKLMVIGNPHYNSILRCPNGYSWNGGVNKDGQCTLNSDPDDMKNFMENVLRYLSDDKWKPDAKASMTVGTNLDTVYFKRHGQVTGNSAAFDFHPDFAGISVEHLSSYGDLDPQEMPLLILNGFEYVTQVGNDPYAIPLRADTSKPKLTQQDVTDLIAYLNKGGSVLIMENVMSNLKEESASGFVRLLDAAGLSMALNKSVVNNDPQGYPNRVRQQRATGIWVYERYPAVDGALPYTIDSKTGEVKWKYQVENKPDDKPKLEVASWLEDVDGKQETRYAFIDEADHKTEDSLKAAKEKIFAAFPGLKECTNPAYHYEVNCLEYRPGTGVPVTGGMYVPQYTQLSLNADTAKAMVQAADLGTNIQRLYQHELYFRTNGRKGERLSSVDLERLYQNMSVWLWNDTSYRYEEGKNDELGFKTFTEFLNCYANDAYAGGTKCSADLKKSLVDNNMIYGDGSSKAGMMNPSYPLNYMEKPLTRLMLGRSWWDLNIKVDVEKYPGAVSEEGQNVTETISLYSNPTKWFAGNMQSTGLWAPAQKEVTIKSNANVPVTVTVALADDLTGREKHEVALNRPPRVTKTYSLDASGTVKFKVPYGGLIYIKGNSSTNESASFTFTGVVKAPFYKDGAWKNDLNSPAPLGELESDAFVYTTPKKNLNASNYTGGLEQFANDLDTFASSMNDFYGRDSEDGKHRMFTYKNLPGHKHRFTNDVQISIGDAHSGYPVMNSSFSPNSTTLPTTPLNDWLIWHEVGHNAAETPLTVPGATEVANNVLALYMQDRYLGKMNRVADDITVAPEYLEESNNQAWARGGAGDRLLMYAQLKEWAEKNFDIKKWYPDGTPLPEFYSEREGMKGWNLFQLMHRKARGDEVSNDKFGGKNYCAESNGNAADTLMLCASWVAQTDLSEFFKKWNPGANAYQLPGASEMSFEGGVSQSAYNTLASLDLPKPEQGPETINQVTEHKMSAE", "UniProt P0CF66": "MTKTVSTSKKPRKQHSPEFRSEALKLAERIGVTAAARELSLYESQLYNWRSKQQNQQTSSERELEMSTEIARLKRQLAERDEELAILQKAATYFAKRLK"}, "source": "the supplement of paper PMC12819154", "about": "“High-throughput peptide-centric local stability assay extends protein–ligand identification to membrane proteins, tissues and bacteria” (Nature Structural & Molecular Biology, 2025)", "note": "The entries are a selection whose mix differs from that of the whole data set. Most entries show no effect beyond the scatter of the controls.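 Note: lysate desalted by size exclusion to strip endogenous ATP, peptide intensities built from DIA-NN precursor signals, and peptides missing any value discarded before comparison.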", "data": [{"compound": "Nc1ncnc2c1ncn2[C@@H]1O[C@H](COP(=O)(O)OP(=O)(O)OP(=O)(O)O)[C@@H](O)[C@H]1O [adenosine 5'-triphosphate]", "assay": "log2 fold change of tryptic peptide abundance, ligand vs vehicle (limited proteolysis) (log2 ratio); higher = more trypsin-susceptible (destabilized)", "settings": "ligand concentration: 5 mM; sample: E. coli desalted lysate; replicate design: treated before aliquoting", "experimental": "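HT-PELSA: desalted E. coli K-12 BW25113 lysate (with 12 mM MgCl2) incubated with 5 mM ATP (pH 7) or water for 30 min at 25 C, then a 4 min trypsin pulse at 22 C. Peptides were quantified by DIA-MS (4 replicates). Value is the peptide log2 fold change (treated/control); negative = stabilized. Scale: negative = ligand-stabilized region.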", "values": [{"target": "UniProt P12995 (peptide sequence: MDGEWDER, peptide start residue: 182)", "log2 fold change": -0.0904}, {"target": "UniProt P14407 (peptide sequence: LEHNPGQYIPQELR, peptide start residue: 338)", "log2 fold change": 0.516}, {"target": "UniProt P0AFF4 (peptide sequence: VPTGTQTVSH, peptide start residue: 409)", "log2 fold change": -0.424}, {"target": "UniProt P0DSF4 (peptide sequence: GALLICPHCNK, peptide start residue: 36)", "log2 fold change": 0.34}, {"target": "UniProt P15286 (peptide sequence: TILTLLQEGK, peptide start residue: 139)", "log2 fold change": 0.253}, {"target": "UniProt P12999 (peptide sequence: QAIAAAFGR, peptide start residue: 7)", "log2 fold change": 0.489}, {"target": "UniProt P0AGL5 (peptide sequence: AKEVYSAR, peptide start residue: 151)", "log2 fold change": 0.22}, {"target": "UniProt P13039 (peptide sequence: AGEVSAEGLR, peptide start residue: 327)", "log2 fold change": -0.551}, {"target": "UniProt P0CK95 (peptide sequence: WFSLTTR, peptide start residue: 436)", "log2 fold change": 0.272}, {"target": "UniProt P0CF66 (peptide sequence: QLAERDEELAILQK, peptide start residue: 76)", "log2 fold change": 0.199}]}]}
